Results taken from publication PMC11006392.
These are yes or no findings as the source states them, for the method shown. Binding calls can cover weak binding; strength is not graded here. Sequences can lack the tags named with a protein.

Chains of the proteins cited; added tags and fusions are not shown. Lines headed by an entry give the natural chain unless they say otherwise; changes in a name come on top.
UniProt Q6GPL0: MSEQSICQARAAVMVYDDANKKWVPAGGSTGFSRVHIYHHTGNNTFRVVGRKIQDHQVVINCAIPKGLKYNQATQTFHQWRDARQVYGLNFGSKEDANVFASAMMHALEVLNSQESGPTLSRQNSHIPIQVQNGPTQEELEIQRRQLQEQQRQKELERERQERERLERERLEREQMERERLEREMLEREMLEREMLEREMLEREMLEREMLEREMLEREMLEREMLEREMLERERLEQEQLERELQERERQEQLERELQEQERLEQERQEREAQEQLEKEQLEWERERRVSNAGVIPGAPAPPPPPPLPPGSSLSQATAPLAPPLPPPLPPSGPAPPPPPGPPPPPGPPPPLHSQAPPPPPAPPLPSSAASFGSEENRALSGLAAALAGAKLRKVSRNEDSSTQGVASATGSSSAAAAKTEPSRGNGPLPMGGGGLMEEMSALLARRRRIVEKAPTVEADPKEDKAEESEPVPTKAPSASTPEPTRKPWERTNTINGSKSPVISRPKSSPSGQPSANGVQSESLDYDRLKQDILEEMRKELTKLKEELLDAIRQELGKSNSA

Target: T1, SNAP-tagged Xenopus tropicalis TOCA-1 (Xenopus tropicalis) (UniProt Q6GUF4)
T1 sequence: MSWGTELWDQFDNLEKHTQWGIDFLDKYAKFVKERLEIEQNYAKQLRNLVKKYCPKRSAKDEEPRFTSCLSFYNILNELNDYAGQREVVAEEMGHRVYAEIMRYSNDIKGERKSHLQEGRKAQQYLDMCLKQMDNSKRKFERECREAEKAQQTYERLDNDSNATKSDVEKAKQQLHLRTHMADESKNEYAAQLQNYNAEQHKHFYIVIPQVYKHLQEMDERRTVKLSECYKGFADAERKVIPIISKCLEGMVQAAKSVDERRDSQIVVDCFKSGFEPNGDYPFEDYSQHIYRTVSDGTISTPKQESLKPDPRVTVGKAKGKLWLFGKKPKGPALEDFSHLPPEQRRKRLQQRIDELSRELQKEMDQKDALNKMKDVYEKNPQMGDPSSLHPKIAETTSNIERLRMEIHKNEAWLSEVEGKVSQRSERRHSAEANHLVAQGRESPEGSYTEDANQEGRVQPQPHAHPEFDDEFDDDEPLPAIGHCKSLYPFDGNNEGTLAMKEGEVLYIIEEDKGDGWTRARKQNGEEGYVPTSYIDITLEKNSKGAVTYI
Test: pull-down; SNAP–TOCA-1 or SNAP alone coupled to SNAP-Capture beads; 100 µl of 1 µM purified Ena or VASP with 10 µl coupled beads, 1 h at 4°C; western blot; both purified

Row | Substance | binding
1 | purified recombinant Xenopus Ena-ΔPRR | binds
2 | purified recombinant wild-type Xenopus VASP | binds

Further lines, results first:

Row | binding | Substance
3 | binds | purified recombinant Xenopus VASP M1 (ΔPRR with P234G)
4 | binds | purified recombinant wild-type Xenopus Ena (from UniProt Q6GPL0)
5 | binds | purified recombinant Xenopus VASP-ΔPRR
